Laboratory results as given in PubChem BioAssay AID493014 (National Center for Advancing Translational Sciences (NCATS), 2011).
The other results are listed elsewhere or left out. These are further read-outs of the screen, such as a control signal, another cell line or another target. No call is given for them. Most of these compounds were active or inconclusive in the main read-out, so they are no random draw. Words in brackets tell the shape of the fitted curve; partial curves, single points and poor fits give uncertain potencies.

Experiment: qHTS Assay to Find Inhibitors of Chronic Active B-Cell Receptor Signaling
Conditions: ABC-DLBCL IkBa-CBG/CBR reporter, luminescence ratio (green luciferase fused to IkBa over red control in TMD8 lymphoma cells), 4 h
In short: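 Compounds up to 46 uM were incubated four hours with TMD8 cells whose green CBG68 luciferase is fused to IkappaBalpha; red CBR luminescence normalised the signal, and concentration-effect curves were fitted to fusion, red and ratio data.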

[1] = measured here: CBR red luminescence, cell number
[2] = measured here: IkBa-CBG green luminescence

SMILES | AC50 [1] | AC50 [2]
COc1cccc(C2(O)CCN(C(=O)C(C)C)CC2)c1 | 6.31 µM [rising, single point] | 
O=S(=O)(c1ccc2c(c1)OCCO2)C1CCC(S(=O)(=O)c2c(F)cccc2F)CC1 (stereo not drawn) | 2.06 µM [rising, partial curve, poor fit] | 
C[C@]12c3[nH]c4ccc(Cl)cc4c3CCN1C(=O)[C@@H](CC(=O)NCc1ccco1)C[C@@H]2C(=O)N1CCCCC1 | 14.6 µM [falling, single point] | 
O=C(NC(=S)N1CCCc2ccccc21)c1ccc(Cl)cc1 | 0.58 µM [falling, full curve] | 
Cc1cc2c(=O)oc(-c3ccc(Br)cc3)nc2s1 | 3.16 µM [falling, full curve] | 
Cc1ccc(NCc2cccnc2)cc1 | 8.2 µM [rising, partial curve, poor fit] | 
CCOC(=O)/C(C#N)=N/Nc1ccccc1OC | 4.11 µM [rising, single point] | 
Cc1[nH]n(-c2ccccc2)c(=O)c1C=NC1CCCCC1 | 35.5 µM [falling, single point] | 
COC(=O)c1ccccc1NC(=O)CN1CCC(n2nnc3cc(F)ccc32)CC1 | 29.1 µM [falling, single point] | 
CCn1c(-c2cc(-c3ccc(OC(C)C)cc3)nc3ccccc23)n[nH]c1=S | 0.164 µM [falling, full curve, poor fit] | 
C/C(Cl)=C\COc1cc(C)nc2c(Br)cccc12 | 4.47 µM [rising, partial curve] | 
CC1CN(C(=O)COC(=O)c2ccc(F)cc2Cl)CC(C)O1 (stereo not drawn) | 14.1 µM [rising, partial curve] | 
C=CCOc1ccc(/C=N/NC(=O)c2cc3c(OC)cc(OC)cc3[nH]2)cc1 | 11.2 µM [falling, partial curve] | 
O=C(c1cc2cc(Br)ccc2o1)N1CCOCC1 | 5.01 µM [rising, partial curve] | 
C=CCN(c1ccc(OC)cc1)S(=O)(=O)c1ccc(Cl)c(C(=O)OCC(=O)NC2CC2)c1 | 3.98 µM [falling, partial curve, poor fit] | 
Cc1cc(N2CCCC2)ccc1/C=C1\NC(=S)N(C)C1=O | 35.5 µM [falling, single point] | 
COc1cc2c(cc1OC)C(/C(C#N)=N\O)=NC(C)(C)C2 | 14.6 µM [rising, partial curve] | 18.4 µM [falling, partial curve, poor fit]
C=CCNC(=O)/C(C#N)=C/c1ccc2c(c1)OCCO2 | 35.5 µM [falling, single point] | 
CC(=O)Nc1ccc(NC2=C/C(=N/S(=O)(=O)c3cccs3)c3ccccc3C2=O)cc1 | 2.24 µM [falling, full curve, poor fit] | 
C[C@@H]1C[C@H]2[C@@H]3CCC4=CC(=O)C=C[C@]4(C)[C@@]3(F)[C@@H](O)C[C@]2(C)[C@@]1(O)C(=O)CO | 0.00411 µM [rising, full curve, poor fit] | 

Some of these compounds in order of length of the SMILES, high to low.
SMILES | AC50 [1] | AC50 [2]
O=S(=O)(c1ccc2c(c1)OCCO2)C1CCC(S(=O)(=O)c2c(F)cccc2F)CC1 (stereo not drawn) | 2.06 µM [rising, partial curve, poor fit] | 
Cc1cc(N2CCCC2)ccc1/C=C1\NC(=S)N(C)C1=O | 35.5 µM [falling, single point] | 
COc1cccc(C2(O)CCN(C(=O)C(C)C)CC2)c1 | 6.31 µM [rising, single point] | 

(listing goes on)

SMILES | AC50 [1] | AC50 [2]
CN(C)c1ccc(C2C3C(=O)N(c4ccc(C(=O)O)cc4)C(=O)C3ON2c2ccccc2)cc1 (stereo not drawn) | 35.5 µM [falling, single point] | 
O=C(NCC1CCCO1)c1cc2nc(-c3ccco3)cc(C(F)(F)Cl)n2n1 (stereo not drawn) | 22.4 µM [falling, single point] | 
Cc1oncc1-c1csc(-c2ccccc2)n1 | 5.62 µM [rising, partial curve] | 
O=c1c(-c2ccccc2)coc2cc(O)ccc12 |  | 3.98 µM [rising, partial curve, poor fit]
Cc1cc(NCCCN)nc(-c2ccccc2O)n1 | 20.6 µM [falling, partial curve] | 
O=C(c1cc(-c2ccc(Br)cc2)on1)N1CCCC1 | 2 µM [falling, full curve, poor fit] | 
CC1CCc2nc(NC(=O)CSc3nc4ccccc4o3)sc2C1 (stereo not drawn) | 29.1 µM [rising, single point] | 
O=C(CCCCCN1C(=O)c2cccc3cccc(c23)C1=O)NCc1cccnc1 | 3.98 µM [falling, full curve] | 
Cc1nn2c(C(F)(F)F)cc(-c3ccc(Cl)cc3)nc2c1C(=O)N1CCOCC1 | 17.8 µM [rising, partial curve, poor fit] | 
C=CCNC(=S)N1CCC(Cc2ccccc2)CC1 | 1.26 µM [rising, full curve] | 
COc1ccc(C2C3=C(CCCC3=O)Nc3ccc4ncccc4c32)cc1OC (stereo not drawn) | 12.6 µM [rising, partial curve, poor fit] | 
CCOc1cc(/C=N/NC(=S)Nc2ccccc2C(F)(F)F)ccc1OCC(=O)N1CCOCC1 | 4.11 µM [rising, full curve, poor fit] | 18.4 µM [falling, single point]
O=C(Nc1nc2ccsc2c(=O)s1)c1ccco1 | 7.08 µM [falling, partial curve] | 
O=C(CCN1C(=O)S/C(=C\c2ccccc2)C1=O)NC1CCS(=O)(=O)C1 (stereo not drawn) | 35.5 µM [falling, single point] | 
COc1ccc(/C=C2\SC(=Nc3ccccc3OC)NC2=O)cc1 | 1.26 µM [falling, full curve] | 
CCOC(=O)c1ccc(NC(=O)c2c(O)c3ccccc3n(C)c2=O)cc1 | 0.355 µM [falling, full curve, poor fit] | 
CCOC(=O)c1ccc(Nc2cc(C)nc(-c3ccccc3O)n2)cc1 | 0.731 µM [falling, partial curve] | 
CCCCC(=O)Nc1ccc(C(=O)N2CCN(c3ccccc3OC)CC2)cc1 | 0.291 µM [rising, partial curve, poor fit] | 3.66 µM [falling, partial curve, poor fit]
CN(N=Nc1cccc([N+](=O)[O-])c1)c1ccccc1 | 20 µM [rising, partial curve, poor fit] | 
COCCNC(=O)c1cn(C)c2ccccc2c1=O | 0.631 µM [rising, full curve, poor fit] | 
